# Laboratory results: US11266645B2, “Methods for treating lymphoma” (Alexion Pharmaceuticals, Inc., priority 2018, dated 2022)
# Read-outs that look alike come from different tables or passages of the source. For some assays here: For at least one compound, name, drawing or mass did not settle the structure. Some of these results come from one statement about several compounds together.
# Assays:
# [1] = system: patients with relapsed or refractory PTCL; details: cited from earlier work
# Primary CLL cells = Primary CLL cells with IL-4/CD40L, immunoblotting and annexin V/PI viability; assay type: cell-based, human
# Description: Combination studies were performed with 10 or 100 nM venetoclax or 300 and 1000 nM S63846. Cell viability was assessed by annexin V/PI using flow cytometry and changes in protein expression by immunoblotting.
compound,measurement,setting,value
O=C(/C=C/c1cccc(S(=O)(=O)Nc2ccccc2)c1)NO [Belinostat],CR,[1]; listed as belinostat,8 to 15%
same,DOR,[1]; listed as belinostat,up to 12 months
C#CCC(Cc1cnc2nc(N)nc(N)c2n1)c1ccc(C(=O)N[C@@H](CCC(=O)O)C(=O)O)cc1 (some centres unmarked) [Pralatrexate],CR,[1]; listed as pralatrexate,8 to 15%
same,DOR,[1]; listed as pralatrexate,up to 12 months
CC1(C)CCC(CN2CCN(c3ccc(C(=O)NS(=O)(=O)c4ccc(NCC5CCOCC5)c([N+](=O)[O-])c4)c(Oc4cnc5[nH]ccc5c4)c3)CC2)=C(c2ccc(Cl)cc2)C1 [Venetoclax],"synergy with BCR kinase inhibitors including cerdulatinib, CLL cell death",Primary CLL cells,synergized
